According to article PMC7948496:
No constants are given. Whether binding was seen depends on the method and setting. Binding seen in cells or lysates may run through a third protein. Some entries that bind do so weakly or less than the wild type. For part of these data: Tags and fused reporters may be left off the sequences shown.

Amino acid sequences for entries named in this document (tags omitted).
UniProt Q02248: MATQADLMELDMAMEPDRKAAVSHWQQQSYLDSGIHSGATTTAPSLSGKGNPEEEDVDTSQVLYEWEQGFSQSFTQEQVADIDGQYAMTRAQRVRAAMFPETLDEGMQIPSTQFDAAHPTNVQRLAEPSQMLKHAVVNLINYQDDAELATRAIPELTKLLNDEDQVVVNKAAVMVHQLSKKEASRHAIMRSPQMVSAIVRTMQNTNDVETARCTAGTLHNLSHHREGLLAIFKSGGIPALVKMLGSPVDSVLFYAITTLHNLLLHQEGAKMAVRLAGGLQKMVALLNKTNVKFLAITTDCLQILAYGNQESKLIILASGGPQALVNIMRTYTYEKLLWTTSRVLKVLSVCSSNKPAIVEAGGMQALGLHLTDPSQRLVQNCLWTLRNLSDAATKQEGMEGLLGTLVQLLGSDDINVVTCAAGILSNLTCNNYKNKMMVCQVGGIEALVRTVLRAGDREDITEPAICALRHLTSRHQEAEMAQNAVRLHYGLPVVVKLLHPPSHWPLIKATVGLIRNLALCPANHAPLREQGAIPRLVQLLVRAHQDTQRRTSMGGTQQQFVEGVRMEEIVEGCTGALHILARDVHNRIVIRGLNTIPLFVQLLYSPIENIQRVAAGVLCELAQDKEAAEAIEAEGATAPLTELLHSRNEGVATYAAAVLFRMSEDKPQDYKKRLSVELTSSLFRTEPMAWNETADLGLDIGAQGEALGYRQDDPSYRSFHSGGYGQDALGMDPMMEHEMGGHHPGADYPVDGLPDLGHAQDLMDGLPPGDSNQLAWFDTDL

T1: TCF4, in HepG2 and Huh-7 cells (human (in HepG2 and Huh-7 cells; the plasmids too are of HepG2 cDNA)), Q9NQB0
T1 chain: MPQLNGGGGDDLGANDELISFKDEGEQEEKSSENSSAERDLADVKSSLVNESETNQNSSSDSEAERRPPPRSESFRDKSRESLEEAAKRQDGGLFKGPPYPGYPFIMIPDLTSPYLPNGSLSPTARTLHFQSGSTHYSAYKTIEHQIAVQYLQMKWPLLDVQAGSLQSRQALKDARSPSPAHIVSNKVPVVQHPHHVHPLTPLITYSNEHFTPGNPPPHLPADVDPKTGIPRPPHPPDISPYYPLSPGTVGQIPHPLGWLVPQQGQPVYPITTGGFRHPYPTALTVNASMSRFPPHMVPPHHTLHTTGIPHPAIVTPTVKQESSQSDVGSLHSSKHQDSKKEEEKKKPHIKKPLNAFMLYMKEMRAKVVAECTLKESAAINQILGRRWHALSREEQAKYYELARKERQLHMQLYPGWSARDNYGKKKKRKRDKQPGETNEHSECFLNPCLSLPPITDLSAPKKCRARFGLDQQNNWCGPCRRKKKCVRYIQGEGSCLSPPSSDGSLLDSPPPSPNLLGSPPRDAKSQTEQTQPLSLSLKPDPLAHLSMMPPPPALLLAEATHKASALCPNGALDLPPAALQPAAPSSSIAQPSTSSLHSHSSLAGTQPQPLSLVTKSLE


How the values were obtained:
Experiment in all cases: co-IP; in HepG2, Huh-7 and Hepa1-6 cells; which protein was precipitated is not told; as described previously (ref. 38)
[1] = molecular target: β-catenin, in Hepa1-6 cells (not stated (mouse if endogenous in Hepa1-6; the paper's plasmids are of human HepG2 cDNA)) (UniProt Q02248)
[2] = molecular target: TCF4, in Hepa1-6 cells (not stated (mouse if endogenous in Hepa1-6; the paper's plasmids are of human HepG2 cDNA)) (UniProt Q924A0)
[3] = molecular target: T1, TCF4, in HepG2 and Huh-7 cells (human …); details: remark: other sources report otherwise

| binding [1] | binding [2] | binding [3] | Binder |
| --- | --- | --- | --- |
| binds | binds | – | JMJD2D, in Hepa1-6 cells (enzyme, UniProt Q3U2K5 1-510) MKTKSTCAQNPNCSIMIFRPTKEEFNDFDKYIAYMESQGAHRAGLAKVIPPKEWRARQSYDNISNILIATPLQQVVSGQAGVFTQYHKKKKGMTVGEYRELANSKKYQTPPHLDFEDLERKYWKNRLYESPIYGADVSGSLFDGKTQQWNVGHLGTIQDLLEQECGIVIEGVNTPYLYFGMWKTTFAWHTEDMDLYSINYLHFGQPKTWYAVPPEHGRRLERLARELFPGSSQGCQAFLRHKVALISPTVLKENGIPFGRITQEAGEFMVTFPYGYHAGFNHGFNCAEAINFATPRWIDYGKVASQCSCGEARVSFSMDAFVRILQPERYELWKRGQDQAVVDHTETMVSTSQELTTRRVTKAPRKTWGLKRLRLRQVSRSLLPIATVSNVPCNMQVCHTSRQPSDVKGDDVQKSDSARASPHPLSLPSSGHMSTRRCSLGRRPCELGAQESSNGAPVKRQLPAGRDDTSPSPELQPQAVSGDLIVDSGLVNPGPQHLMTASEGGLTSDP |
| – | – | binds | Histone lysine demethylase 4D (JMJD2D), in HepG2 and Huh-7 cells, Q6B0I6 1-523 (enzyme) METMKSKANCAQNPNCNIMIFHPTKEEFNDFDKYIAYMESQGAHRAGLAKIIPPKEWKARETYDNISEILIATPLQQVASGRAGVFTQYHKKKKAMTVGEYRHLANSKKYQTPPHQNFEDLERKYWKNRIYNSPIYGADISGSLFDENTKQWNLGHLGTIQDLLEKECGVVIEGVNTPYLYFGMWKTTFAWHTEDMDLYSINYLHLGEPKTWYVVPPEHGQRLERLARELFPGSSRGCGAFLRHKVALISPTVLKENGIPFNRITQEAGEFMVTFPYGYHAGFNHGFNCAEAINFATPRWIDYGKMASQCSCGEARVTFSMDAFVRILQPERYDLWKRGQDRAVVDHMEPRVPASQELSTQKEVQLPRRAALGLRQLPSHWARHSPWPMAARSGTRCHTLVCSSLPRRSAVSGTATQPRAAAVHSSKKPSSTPSSTPGPSAQIIHPSNGRRGRGRPPQKLRAQELTLQTPAKRPLLAGTTCTASGPEPEPLPEDGALMDKPVPLSPGLQHPVKASGCSWAPVP |
